Like-named read-outs stand apart in the source and are kept apart here. No constants are given. Whether binding was seen depends on the method and setting. For part of these data: In cells and extracts the contact can be indirect. Some binding calls cover weakened binding; strength is not graded here. Tags and fused reporters may be left off the sequences shown.

By UniProt entry, the sequences of proteins in these tests, tags left out.
UniProt Q9F4H4: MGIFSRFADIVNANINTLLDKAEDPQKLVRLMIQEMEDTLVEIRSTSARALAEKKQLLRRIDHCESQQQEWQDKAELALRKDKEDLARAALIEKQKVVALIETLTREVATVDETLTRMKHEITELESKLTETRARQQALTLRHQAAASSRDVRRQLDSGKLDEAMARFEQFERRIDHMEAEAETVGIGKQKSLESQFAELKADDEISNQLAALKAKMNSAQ

We go through three molecules from article PMC5596341.

The target in experiment [1] is T1, PspB-3×FLAG (Y. enterocolitica).
T1 sequence: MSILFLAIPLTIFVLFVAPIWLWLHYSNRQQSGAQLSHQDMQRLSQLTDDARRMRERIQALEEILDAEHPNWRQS
Kind of experiment: co-IP; anti-FLAG M2 antibody on protein A-Sepharose; membrane fraction of Y. enterocolitica solubilised with 1% DDM in 50 mM Tris-HCl pH 7.5, 300 mM NaCl, 5 mM EDTA; 4°C overnight; native conditions; immunoblot; strains with the pspA operon under tacp or its native promoter. (In general: Immunoblotting shows a protein as a band on a membrane.)

For experiment [2] the target is unchanged. The description is as above. This is another data set of the same source.
The target of experiment [3] is T2, PilQ-His6 (Pseudomonas aeruginosa), P34750.
T2 chain: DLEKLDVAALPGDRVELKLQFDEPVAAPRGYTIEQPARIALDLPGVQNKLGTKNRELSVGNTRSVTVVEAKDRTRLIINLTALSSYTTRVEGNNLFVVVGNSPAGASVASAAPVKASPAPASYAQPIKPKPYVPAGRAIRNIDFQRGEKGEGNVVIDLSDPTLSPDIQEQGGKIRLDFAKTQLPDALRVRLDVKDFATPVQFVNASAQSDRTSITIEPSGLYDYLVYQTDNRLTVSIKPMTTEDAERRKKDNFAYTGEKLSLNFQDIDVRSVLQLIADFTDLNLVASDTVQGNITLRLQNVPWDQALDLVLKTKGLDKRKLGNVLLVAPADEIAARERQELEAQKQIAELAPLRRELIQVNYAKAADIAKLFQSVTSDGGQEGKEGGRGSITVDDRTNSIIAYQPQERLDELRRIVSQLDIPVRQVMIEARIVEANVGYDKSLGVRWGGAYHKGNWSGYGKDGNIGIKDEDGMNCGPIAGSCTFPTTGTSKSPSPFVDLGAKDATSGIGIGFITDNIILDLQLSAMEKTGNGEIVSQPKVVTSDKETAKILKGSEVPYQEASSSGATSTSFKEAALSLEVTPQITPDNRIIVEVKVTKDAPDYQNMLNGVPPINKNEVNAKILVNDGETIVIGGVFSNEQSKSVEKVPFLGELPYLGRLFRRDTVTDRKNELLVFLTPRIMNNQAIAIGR
The experiment in a line: SDS-PAGE of unheated samples with immunoblot (SDS-resistant multimers); unheated total, inner and outer membrane fractions of Y. enterocolitica; 6% polyacrylamide gel; anti-His6 immunoblot. The following applies: remark: other sources report otherwise.

Take PspA (from UniProt Q9F4H4 1-221): the binding result in experiment [1] is recorded as “binds”.

B1: PilQ-His6 (protein, UniProt P34750 25-714)
chain: T2 chain
Take B1: in experiment [2], the binding entry is on record as “no binding”.

B2: PilQ-His6, P34750 25-714 (protein)
chain: T2 chain
For B2, the binding entry in experiment [3] is given as “no binding”.
